Laboratory results from PubChem BioAssay AID493014 (National Center for Advancing Translational Sciences (NCATS), 2011).
Some of the results follow. The main result of the screen is listed elsewhere. These columns were measured beside it and carry no call. Most of these compounds were active or inconclusive in the main read-out, so they are no random draw. Words in brackets tell the shape of the fitted curve; partial curves, single points and poor fits give uncertain potencies.

Test: qHTS Assay to Find Inhibitors of Chronic Active B-Cell Receptor Signaling
Conditions: ABC-DLBCL IkBa-CBG/CBR reporter, luminescence ratio (green luciferase fused to IkBa over red control in TMD8 lymphoma cells), 4 h
Summary of the method: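 Doxycycline induced both beetle luciferases in TMD8 lymphoma cells; IKK-driven degradation limits the IkappaBalpha-fused green signal, while red luminescence normalises for cell number and nonspecific effects. Compounds tested up to 46 uM, 4 hrs.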

[1] = measured here: CBR red luminescence, cell number
[2] = measured here: IkBa-CBG green luminescence

SMILES | AC50 [1] | AC50 [2]
COc1cc(Br)c(Br)cc1N | 0.0891 µM [rising, full curve, poor fit] | –
COc1ccc(NC(=O)COC(=O)c2cc(=O)c3ccccc3o2)cc1OC | 14.6 µM [rising, partial curve] | –
COC(=O)c1ccccc1NC(=O)CCS(=O)(=O)c1ccc(Br)s1 | 6.51 µM [falling, single point] | –
Cc1cccc(N2CCN(C(=O)CCCOc3ccccc3)CC2)c1C | 2.59 µM [rising, partial curve, poor fit] | –
OC(CNCC(c1ccc(Cl)cc1Cl)c1c[nH]c2ccccc12)c1ccccc1 (stereo not given) | 31.6 µM [falling, single point] | 35.5 µM [rising, partial curve, poor fit]
CCCCCCOC(=O)Sc1nc2ccccc2o1 | 6.51 µM [falling, single point] | –
OCCC1CN(Cc2ccccc2-c2ccco2)CCN1C1CCCC1 (stereo not given) | 8.91 µM [falling, partial curve, poor fit] | –
CCC(C)NCCOCCOc1ccc(Br)cc1 (stereo not given) | 5.01 µM [falling, full curve] | –
Cc1nc(NC(=O)c2ccccc2)sc1-c1csc(NCc2ccccc2)n1 | 29.1 µM [falling, single point] | –
CCc1ccc(S(=O)(=O)Nc2cc3c(cc2N2CCCCC2)n(C)c(=O)c(=O)n3C)cc1 | 35.5 µM [falling, single point] | –
CC1CCCCN1c1nnc(N)s1 (stereo not given) | 2.82 µM [falling, partial curve, poor fit] | –
COc1cccc(/C=N/Nc2nc3ccccc3[nH]2)c1OC | 2 µM [falling, full curve, poor fit] | –
Clc1cccc(CSc2ccc(-c3ccco3)nn2)c1 | 6.31 µM [rising, single point] | –
COc1ccc(NC(=O)c2c(NCc3cccc(OC)c3)sc3c2CCCC3)cc1 | 20 µM [falling, single point] | –
CCOC(=O)c1c(N2C(=O)C3CC(C)=C(C)CC3C2=O)sc(C)c1C (stereo not given) | 25.9 µM [rising, single point] | –
Cc1nc(-n2[nH]c3c(c2=O)CCCC3)[nH]c(=O)c1Cc1ccccc1 | 35.5 µM [rising, single point] | 35.5 µM [falling, single point]
CCOC(=O)c1ccc(-n2[nH]c(-c3ccccc3)cc2=O)cc1 | 14.6 µM [falling, partial curve] | –
CCOC(=O)C(C)c1c(C(=O)c2ccc(C)nc2)c2ccccc2n1C (stereo not given) | 35.5 µM [rising, single point] | –
O=C(COc1cccnc1[N+](=O)[O-])Nc1ccc2c(c1)OCO2 | 14.1 µM [falling, single point] | –
Cc1ccc(C(=O)CCC(=O)NNC(=O)c2ccccc2O)cc1 | 1.16 µM [rising, full curve, poor fit] | –
CCN1CCc2nc3sc(C(=O)c4ccc(F)cc4)c(N)c3cc2C1 | 1.41 µM [falling, full curve] | 0.891 µM [rising, full curve, poor fit]
CC(=O)c1cn(CC(=O)NCc2cccnc2)c2ccccc12 | 2.59 µM [rising, partial curve, poor fit] | –

Quoted from the listing:
AC50 [1], CCOC(=O)c1ccc(-n2[nH]c(-c3ccccc3)cc2=O)cc1 is entered as 14.6 µM [falling, partial curve]
AC50 [1], CCC(C)NCCOCCOc1ccc(Br)cc1 (stereo not given) is entered as 5.01 µM [falling, full curve]
AC50 [1], CCOC(=O)C(C)c1c(C(=O)c2ccc(C)nc2)c2ccccc2n1C (stereo not given) is entered as 35.5 µM [rising, single point]

The results go on:

SMILES | AC50 [1] | AC50 [2]
COc1ccccc1NC1=NC(c2ccc(Cl)cc2)N=C(N)N1 (stereo not given) | 29.1 µM [rising, single point] | 29.1 µM [falling, single point]
O=C(O)c1ccccc1NC(=S)NC(NC(=O)c1ccccc1[N+](=O)[O-])C(Cl)(Cl)Cl (stereo not given) | 10 µM [falling, partial curve, poor fit] | –
Cc1ccc2nc(-c3ccc(SCC(=O)O)nc3)[nH]c2c1 | 11.2 µM [falling, single point] | –
COc1ccccc1CN1C[C@@H]2C[C@@H](c3cccc(C)c3)N3CCC[C@@]23C1=O | 35.5 µM [falling, single point] | –
CN(C)CCCOc1ccc(C(C)(C)c2ccccc2)cc1 | 8.2 µM [falling, partial curve] | –
CCc1cc(-c2n[nH]c(=S)n2-c2ccccc2C)cs1 | 13 µM [falling, partial curve] | –
COC(=O)c1ccc2c(c1)C(C)(C)C(/C=C/c1ccccc1O)=[N+]2C | 35.5 µM [falling, partial curve, poor fit] | 3.16 µM [falling, partial curve, poor fit]
CC(C)S(=O)(=O)c1csc(NC(=O)Nc2cc(Cl)ccc2Cl)c1Cl | 11.2 µM [falling, partial curve] | –
CCCCOC(=O)c1ccc(NC(=O)C(=O)NCCN(C)C)cc1 | 35.5 µM [rising, single point] | –
O=C(CN1CCN(S(=O)(=O)c2cc(Cl)ccc2Cl)CC1)c1ccc(O)c(O)c1 | 7.08 µM [rising, full curve] | –
Cc1nc2cc(NC(=O)c3ccco3)ccc2n1C | 11.2 µM [falling, partial curve, poor fit] | –
COc1ccc(CNC(=O)CCc2cc(OC)c(OC)c(OC)c2)cc1 | 28.2 µM [rising, single point] | –
Cc1ccc2c(COC(=O)c3cnc(C)cn3)cc(=O)oc2c1 | 6.31 µM [rising, single point] | –
CSc1ccc(CSCC(=O)N2CCN(S(=O)(=O)c3ccc(C)cc3C)CC2)cc1 | 20.6 µM [falling, single point] | –
O=C(Nc1cccc(Br)c1)c1cc2ccccc2o1 | 11.2 µM [falling, partial curve] | –
COc1ccc(CNC(=O)c2ccc(N3CCOCC3)c([N+](=O)[O-])c2)cc1 | 0.251 µM [rising, full curve, poor fit] | –
Clc1cccc(-n2ncc3c(NCCCn4ccnc4)ncnc32)c1 | 11.2 µM [falling, partial curve, poor fit] | –
c1ccc(-c2nc3nc4ccccc4nc3n2Cc2ccco2)cc1 | 8.91 µM [falling, partial curve, poor fit] | –
COc1ccc(-c2cc(C(=O)N3CCc4ccccc4C3)no2)cc1OC | 20 µM [falling, single point] | –
Cc1ccc2cc(C=O)c(Cl)nc2c1 | 35.5 µM [falling, single point] | –
COc1ccc(-c2csc(-c3ccccc3)n2)c(OC)c1 | 1.12 µM [rising, partial curve, poor fit] | –
CCNC(=S)NNC(=O)c1cc(-c2ccc(OCC)cc2)nc2ccccc12 | 7.94 µM [falling, partial curve, poor fit] | –

Quoted at random: two entries already listed
SMILES | AC50 [1] | AC50 [2]
COC(=O)c1ccc2c(c1)C(C)(C)C(/C=C/c1ccccc1O)=[N+]2C | 35.5 µM [falling, partial curve, poor fit] | 3.16 µM [falling, partial curve, poor fit]
CN(C)CCCOc1ccc(C(C)(C)c2ccccc2)cc1 | 8.2 µM [falling, partial curve] | –

Further results:

SMILES | AC50 [1] | AC50 [2]
O=C(Nc1ccc(NC(=O)c2cccs2)cc1Cl)c1ccco1 | 0.1 µM [falling, full curve, poor fit] | –
COc1ccccc1NC(=O)CN(c1ccccc1C)S(C)(=O)=O | 35.5 µM [falling, single point] | –
CCc1ccc(NC(=O)CSc2nc3ccccc3nc2N2CCCCC2)cc1 | 11.2 µM [rising, partial curve, poor fit] | –
CCOC(=O)c1sc2nc3c(cc2c1N)COC(C)(C)C3 | 5.8 µM [falling, full curve] | 5.17 µM [rising, partial curve, poor fit]
CCn1c(C)nc2cc(C(=O)NNC(=S)Nc3ccc(F)cc3)ccc21 | 4.47 µM [rising, single point] | –
C=CCNc1oc(-c2cccc3ccccc23)nc1C#N | 16.4 µM [rising, partial curve, poor fit] | –
O=C(N/N=C/c1ccc(N2CCOCC2)o1)c1cccc(F)c1 | 29.1 µM [falling, single point] | –
CC(CN1CCOCC1)OC(=O)c1cccc(Cl)c1 (stereo not given) | 35.5 µM [rising, partial curve, poor fit] | –
COc1cc(CNCc2cccnc2)ccc1OCC(=O)NC1CCCCC1 | 6.31 µM [falling, single point] | –
Cc1cc(C)c2c(=O)[nH]c(SCC(=O)c3ccc(C)c(C)c3)nc2n1 | 1.41 µM [falling, full curve, poor fit] | –
O=C(/C=C/c1ccc2c(c1)OCO2)c1ccco1 | 25.9 µM [falling, single point] | –
Cc1cc(Nc2ccc(N3CCOCC3)cc2)c2cccc(C)c2n1 | 14.1 µM [falling, single point] | –
CCOc1ccc(C(CCc2ccccc2)NC(=O)c2ccccc2)cc1OCC (stereo not given) | 29.1 µM [rising, single point] | –
O=C(COC(=O)C1CC2CCCC(C1)C2=O)Nc1ccc(F)c(Cl)c1 (stereo not given) | 18.4 µM [falling, partial curve, poor fit] | –
CCc1ccc(N2C(=O)CN(Cc3cc(OC)c(OC)c(OC)c3)C2=S)cc1 | 18.4 µM [falling, single point] | –
C=CCc1c(C)nc2c(-c3ccccc3)cnn2c1N1CCOCC1 | 0.112 µM [rising, full curve, poor fit] | –
CCOC(=O)c1cnc2ccc(OCC)cc2c1N1CCN(C)CC1 | 35.5 µM [falling, single point] | –
CC(=O)N(C)c1ccc(NC(=O)Nc2cccc3ccccc23)cc1 | 10 µM [falling, partial curve] | –
CC(CC(=O)Nc1cc([N+](=O)[O-])ccc1Cl)c1ccccc1 (stereo not given) | 2.51 µM [rising, full curve, poor fit] | –
Cc1ccc(SCC(=O)NCCN2C(=O)CSC2=O)c(C)c1 | 3.66 µM [rising, single point] | –
